Source: PubChem BioAssay AID1259425 (University of Nebraska Medical Center, 2018)
Aim: 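Compare each knockdown with KSR1 silencing using changes in marker transcripts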 (primary screen). Cells: HCT116 human colon cancer cells. Reagent: siRNA pool against human genes, 50 nM siRNA. Measured: 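After 50 nM siRNA pool, branched-DNA assay measures six marker transcripts per well, minus blank, normalised to the geometric mean of two housekeeping transcripts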. Scale: BNIP3L mRNA: higher = more BNIP3L transcript after knockdown; NDRG1 mRNA: higher = more NDRG1 transcript after knockdown; BNIP3 mRNA: higher = more BNIP3 transcript after knockdown; ALDOC mRNA: higher = more ALDOC transcript after knockdown; ACSL5 mRNA: higher = more ACSL5 transcript after knockdown.
The whole screen tested about 14,000 reagents; below is an unselected part. Not stated in the record: the time to read-out.

| target gene | BNIP3L mRNA, set 1 | NDRG1 mRNA, set 1 | BNIP3 mRNA, set 1 | ALDOC mRNA, set 1 | ACSL5 mRNA, set 1 |
| --- | --- | --- | --- | --- | --- |
| COQ5 (GeneID 84274) | 0.222 | 0.353 | 0.229 | 0.177 | 0.541 |
| GIPC1 (GeneID 10755) | 0.152 | 0.167 | 0.251 | 0.039 | 0.0782 |
| F8A1 (GeneID 8263) | 0.172 | 0.357 | 0.305 | 0.0284 | 0.16 |
| LRRC41 (GeneID 10489) | 0.114 | 0.15 | 0.297 | 0.0334 | 0.141 |
| CEBPE (GeneID 1053) | 0.0367 | 0.256 | 0.209 | 0.016 | 0.278 |
| FAM167A-AS1 (GeneID 83656) | 0.374 | 0.379 | 0.318 | 0.0879 | 0.299 |
| KCNJ11 (GeneID 3767) | 0.122 | 0.0795 | 0.354 | 0.0144 | 0.0597 |
| APOL5 (GeneID 80831) | 0.0835 | 0.116 | 0.373 | 0.0181 | 0.157 |
| TAS2R40 (GeneID 259286) | 0.142 | 0.166 | 0.307 | 0.0472 | 0.244 |
| HCK (GeneID 3055) | 0.0948 | 0.136 | 0.47 | 0.00823 | 0.303 |
| SLC35G2 (GeneID 80723) | 0.119 | 0.185 | 0.299 | 0.0348 | 0.22 |
| FKRP (GeneID 79147) | 0.0757 | 0.2 | 0.34 | 0.00827 | 0.112 |
| EFS (GeneID 10278) | 0.0588 | 0.05 | 0.27 | 0.0228 | 0.0998 |
| ESYT2 (GeneID 57488) | 0.119 | 0.202 | 0.37 | 0.0524 | 0.211 |
| PSMB3 (GeneID 5691) | 0.298 | 1.75 | 0.384 | 0.0237 | 0.39 |
| TREX2 (GeneID 11219) | 0.119 | 0.332 | 0.298 | 0.0532 | 0.221 |
| C21orf91 (GeneID 54149) | 0.0733 | 0.105 | 0.25 | 0.0262 | 0.0832 |
| CASP3 (GeneID 836) | 0.0653 | 0.0951 | 0.171 | 0.0183 | 0.165 |
| CHCHD2 (GeneID 51142) | 0.155 | 0.0656 | 0.231 | 0.011 | 0.11 |
| FAM120A (GeneID 23196) | 0.041 | 0.216 | 0.236 | 0.0162 | 0.141 |
| GORASP1 (GeneID 64689) | 0.061 | 0.207 | 0.232 | 0.0123 | 0.159 |
| ATF5 (GeneID 22809) | 0.0726 | 0.0981 | 0.343 | 0.00713 | 0.175 |
| HOXA5 (GeneID 3202) | 0.194 | 0.118 | 0.275 | 0.0281 | 0.316 |
| LRRK1 (GeneID 79705) | 0.0971 | 0.137 | 0.428 | 0.00663 | 0.202 |
| IDH2 (GeneID 3418) | 0.101 | 0.116 | 0.12 | 0.015 | 0.0953 |
| CCDC9 (GeneID 26093) | 0.153 | 0.933 | 0.648 | 0.00705 | 0.183 |
| HSPA5 (GeneID 3309) | 0.152 | 0.42 | 0.125 | -0.000155 | 0.0969 |
| TMEM177 (GeneID 80775) | 0.163 | 0.1 | 0.42 | 0.0256 | 0.167 |
| VASH2 (GeneID 79805) | 0.168 | 0.499 | 0.276 | 0.0521 | 0.217 |
| TYROBP (GeneID 7305) | 0.101 | 0.199 | 0.302 | 0.0164 | 0.23 |
| CDH18 (GeneID 1016) | 0.118 | 0.166 | 0.222 | 0.0133 | 0.218 |
| SIVA1 (GeneID 10572) | 0.168 | 0.224 | 0.282 | 0.0266 | 0.526 |
| RXRA (GeneID 6256) | 0.125 | 0.129 | 0.257 | 0.0126 | 0.0813 |
| FADS3 (GeneID 3995) | 0.135 | 0.321 | 0.389 | 0.0218 | 0.14 |
